# Results of single-concentration screens

Protein sequences, listed by entry. Tags and fused reporters are not part of them.
UniProt P9WNZ1, whole entry: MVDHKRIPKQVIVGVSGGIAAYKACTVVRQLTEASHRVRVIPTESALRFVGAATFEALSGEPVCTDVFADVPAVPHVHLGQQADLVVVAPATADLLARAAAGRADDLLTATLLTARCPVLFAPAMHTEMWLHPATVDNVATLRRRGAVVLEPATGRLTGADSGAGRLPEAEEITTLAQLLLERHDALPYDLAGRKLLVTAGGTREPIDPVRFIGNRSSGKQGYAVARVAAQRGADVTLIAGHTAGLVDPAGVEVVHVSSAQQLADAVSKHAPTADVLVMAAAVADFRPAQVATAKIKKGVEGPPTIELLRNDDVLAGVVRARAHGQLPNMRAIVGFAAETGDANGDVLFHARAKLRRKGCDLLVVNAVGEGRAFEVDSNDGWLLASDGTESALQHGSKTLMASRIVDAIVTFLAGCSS

The values are deposited in ChEMBL (CHEMBL3988442, “University of Dundee, Small-Polar-MMV Screening Library” (2021)).

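Coenzyme A biosynthesis protein CoaBC, Mycobacterium tuberculosis (UniProt P9WNZ1). Enzyme assay of CoaBC with a phosphate dye (Biomol Green) read at 650 nm. Compounds at 30 µM. Direction is inferred from only a few compounds that gave an IC50; most scored high, so higher reads as stronger inhibition. Most strong results did not repeat in a second test. Of about 67,000 compounds tested this way, about 40 (0.06%) reached 50% or more in at least one test.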

Results are given as percent effect.
The controls that fix the scale are not given in the record; negative values are as filed.
The compounds are a random part of those screened.

structure,effect
CCN1C(=O)C[C@@H]2[C@@H]1CCN2S(=O)(=O)c1ccc(OC)cc1,-0.5089%
Cc1cnn(CC(C)NCc2csc(-c3cccs3)n2)c1 (stereo not shown),11.07%
CC1(C)CNC(=O)c2nc(CCN3CCOCC3)[nH]c2C1,0.9756%
CCOCCCNc1nc2c(s1)c(C)nn2C,-2.558%
O=S(=O)(Cc1ccccc1F)N1CCCC1c1nnc2n1CCCCC2 (stereo not shown),-0.5089%
Cc1noc(C)c1C(=O)NCc1cccnc1N(C)C,5.115%
CC(NCc1ccncc1)c1cc(F)ccc1N1CCN(C)CC1 (stereo not shown),-15.42%
CC1CCC(NC(=O)CNC2(c3ccc(F)cc3)CCOCC2)CC1 (stereo not shown),-10.51%
CCCc1nnc(NCCn2nc(C)c(Cl)c2C)o1,8.009%
Cc1cc(NC(=O)CN2CCCC2c2noc(C)n2)n(C)n1 (stereo not shown),4.961%
Cc1csc(CN2C[C@H](NC(=O)C3CCOCC3)[C@@H](C(C)C)C2)n1,3.169%
CN(C)[C@@H]1CCN(C(=O)Cc2ccc(F)cc2)[C@H]1Cc1ccncc1,3.25%
CC(C)CN1CC(c2nc(-c3ccc(F)cc3)c[nH]2)CC1=O (stereo not shown),4.132%
CN(C)c1cc(CNC(=O)Nc2ccc(F)cc2)ccn1,7.254%
Cc1nc(CN2CCOC(c3nc(C(C)C)n[nH]3)C2)oc1C (stereo not shown),0%
COc1cccc(S(=O)(=O)NC(=O)CC2CCCO2)c1 (stereo not shown),1.419%
CN(C(=O)CCOc1ccccc1)C1CCN(CC2CCOC2)CC1 (stereo not shown),-11.81%
CC(O)CN1CCN(C(=O)c2ccn(-c3ccccc3Cl)n2)CC1 (stereo not shown),0%
CC(C)(C)S(=O)(=O)CCNC(=O)c1cnc(-c2ccccc2)nc1,-5.579%
CCOCC(=O)NCC1Cn2nnc(-c3cccc(F)c3)c2CO1 (stereo not shown),-52.77%
O=C(OCc1cc(=O)n2cc(Br)ccc2n1)c1ccc2c(c1)OCO2,-2.651%
O=C(NCC(O)(c1cccs1)C1CC1)NC1CCCCC1 (stereo not shown),-5.285%
CC(C)N(Cc1ccccc1)C(=O)NCCNC(=O)c1cccnc1,2.683%
CC1CN(S(=O)(=O)c2cc(S(C)(=O)=O)ccc2Br)c2cccnc2O1 (stereo not shown),6.013%
Cc1c(C(=O)NCC(C)C)nnn1-c1cccc2c1CCN(C)C2,3.374%
O=C(NCCNC(=O)c1scnc1Cl)c1ccoc1,0.2611%
CCC(C)N(Cc1cccnc1)C(=O)c1ccc(NS(=O)(=O)CC)cc1 (stereo not shown),-4.717%
c1cncc(COC2COC3(CCN(c4cnccn4)CC3)C2)c1 (stereo not shown),5.708%
NC(=O)C1CCN(C(=O)Cn2nc(-c3ccccc3)oc2=O)C1 (stereo not shown),4.091%
Fc1cc(CN2CCOC3(CCOCC3)C2)ccc1Cl,16.36%
Cc1ncsc1C(=O)NC1CCN(CCC#N)CC1,-12.27%
FC(F)(F)c1[nH]nc2c1CN(Cc1ccccc1)CC2,6.452%
Cc1nn(C)c(C)c1C(=O)NCc1cccnc1OC1CCCC1,0%
COc1cccc(N2CCC(N3CCOC(C(F)(F)F)C3)CC2)c1 (stereo not shown),9.451%
CCC[C@H]1CN(c2nccc(OC)n2)C[C@@H]1NC(=O)C1CCOCC1,7.625%
O=C(O)CSc1nccc(-c2ccc3c(c2)OCO3)n1,2.184%
c1cc(CN2CC[C@@H]3CN(c4cnccn4)C[C@@H]3C2)ccn1,5.817%
CCN1CCCC(c2nc(O)c3cc(C)ccc3n2)C1 (stereo not shown),3.947%
CC(=O)N1CCOC[C@H](OCC(=O)N(C)C)C1,-13.16%
O=C(c1cocn1)N1CC[C@H]2OCC[C@@]2(COc2ncccc2F)C1,11.68%
CCCS(=O)(=O)N1C[C@@H](c2nc(C)no2)C[C@H]2OCC[C@H]21,1.131%
c1cnnc(N2CCCC(NCc3cccc4c3OCO4)C2)c1 (stereo not shown),0.2475%
O=C(c1ccc[nH]1)N1CCCC2(CCCN2Cc2cccnc2)C1 (stereo not shown),7.536%
O=C(c1ccc(-c2cnco2)cc1)N1CCC(Nc2cccnn2)CC1,1.935%
CN1[C@H](Cn2cncn2)C[C@@H]2CN(Cc3ccsc3)CC[C@@H]21,2.956%
COc1cccc(-c2cc(C(=O)N3N=C(C)CC3(O)C(F)(F)F)[nH]n2)c1 (stereo not shown),7.215%
Cn1cc(C(C)(O)CNC(=O)c2cc(Br)cn2C)cn1 (stereo not shown),-1.241%
Cc1noc(C)c1CN(C)Cc1csc(-c2ccccc2F)n1,6.646%
Cc1nc2ccc(C(=O)N(CCC#N)CCC#N)cc2nc1C,-1.985%
CC(C)COC(C)C(=O)NCCNC(=O)C(C)C (stereo not shown),-5.301%
NC(=O)N1CCCC(C(=O)NCc2noc(Cc3ccccc3)n2)C1 (stereo not shown),2.723%
COCCC(=O)N1CCC(c2cc(O)n(C)n2)C1 (stereo not shown),-1.961%
CN(CCN1CCOCC1)C(=O)CCc1cccc(Cl)c1,-1.215%
Cc1cc(C2CCCN2C(=O)Cn2c(C)cc(=O)c3ccccc32)on1 (stereo not shown),1.238%
O=C(O)c1ccccc1-c1ccc(CN2CC(O)C2)cc1,3.253%
Cc1cccc2c1nc(COCC(=O)O)n2-c1ccsc1,5.353%
O=C1NCCN(C(=O)c2cn3ccsc3n2)C1Cc1ccccc1 (stereo not shown),7.073%
COc1ccc(C[C@H]2CN(C(=O)c3cnoc3)CC[C@@H]2OC)cc1,4.505%
O=S(=O)(N[C@@H]1CCO[C@]2(CCN(CC3CCOCC3)C2)C1)C1CC1,1.208%
CC(NC(=O)N(C)Cc1ccsc1)c1ccc2c(c1)OCO2 (stereo not shown),-2.394%
Cc1cc(CN2CCN(C(=O)NC(C)c3cccnc3)CC2)no1 (stereo not shown),6.717%
CNc1nnc(SCc2nnc(C(C)(C)C)o2)s1,6.311%
O=C(c1ccc[nH]1)N1CCn2cc(Cn3cncn3)nc2C1,6.218%
O=C(NCCCn1ccnc1)NCC(c1ccco1)N1CCCCC1 (stereo not shown),2.089%
O=C(c1ccnn1-c1ccc2ccccn12)N1CCOCC1,2.716%
CCCC(Cn1cnc(-c2ccccc2)c1-c1cncn1CC)N(C)C (stereo not shown),-1.733%
Cc1ccc(C(=O)N2CC[C@@]3(O)CCCC[C@H]3C2)cc1,-7.323%
OC1CCN(c2ccnc3c(F)cc(Br)cc23)CC1,-2.335%
Cc1cc(S(=O)(=O)Nc2cccc(I)c2)sc1C(=O)O,2.575%
CC(C)C1CN(c2cccc(C#N)n2)CCCN1CC1CC1 (stereo not shown),-0.2296%
c1cncc(CN2CCCn3nnc(CN4CCCCC4)c3C2)c1,1.665%
Cn1ncc2c(=O)[nH]c(CN3CCC(Cc4ccccc4)CC3)nc21,10.18%
CCNc1ccnc(NC2CCN(CC(N)=O)CC2)n1,2.415%
CCNC(=O)c1cnc(Sc2nccn2C)c(Cl)c1,-1.21%
O=C1COC2(CCN(Cc3cccnc3)CC2)CN1,3.509%
CN1CCCC1c1ccnc(C(=O)N(C)C2CCCCC2)c1 (stereo not shown),2.85%
Cc1ccc(C(=O)N2CCc3ncccc3C2)cc1N1CCNC1=O,0.2571%
COc1cccc(CC2(C(=O)O)CCN(c3nccs3)CC2)c1,-1.353%
CCCC(NC(=O)c1cc(C)n(C2CC2)c1C)c1nnn[nH]1 (stereo not shown),10.27%
CC(C)Cc1cn(C2CCN(C(C)CC3CC3)CC2)nn1 (stereo not shown),-4.703%
O=C(CC1CC1)NCc1cn2c(n1)CN(C(=O)c1cccnc1)CC2,0.2591%
Cc1cnn(CCNCC(=O)NC(C)c2ccc3c(c2)OCCO3)c1 (stereo not shown),-1.677%
O=C1CCC(=O)N1CCOc1nc(-c2ccccc2Cl)no1,4.994%

The first 5 entries again:

structure	effect
CCN1C(=O)C[C@@H]2[C@@H]1CCN2S(=O)(=O)c1ccc(OC)cc1	-0.5089%
Cc1cnn(CC(C)NCc2csc(-c3cccs3)n2)c1 (stereo not shown)	11.07%
CC1(C)CNC(=O)c2nc(CCN3CCOCC3)[nH]c2C1	0.9756%
CCOCCCNc1nc2c(s1)c(C)nn2C	-2.558%
O=S(=O)(Cc1ccccc1F)N1CCCC1c1nnc2n1CCCCC2 (stereo not shown)	-0.5089%